The source of these data is PubChem BioAssay AID493014 (National Center for Advancing Translational Sciences (NCATS), 2011).

The test can be described thus: qHTS Assay to Find Inhibitors of Chronic Active B-Cell Receptor Signaling. Conditions: ABC-DLBCL IkBa-CBG/CBR reporter, luminescence ratio (green luciferase fused to IkBa over red control in TMD8 lymphoma cells), 4 h. Summed up:
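Compounds up to 46 uM were incubated four hours with TMD8 cells whose green CBG68 luciferase is fused to IkappaBalpha; red CBR luminescence normalised the signal, and concentration-effect curves were fitted to fusion, red and ratio data.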

Setting [1] is: measured here: CBR red luminescence, cell number.
[2] abbreviates: measured here: IkBa-CBG green luminescence.

The other results are listed elsewhere or left out. Shown are side measurements of this screen, not its main read-out; they come without a call. Compounds called inactive in the main read-out are mostly missing here. Potencies come from curve fits of mixed quality, noted in brackets.

Consider `COc1cc(-c2cc(-c3ccc(F)cc3)nc(N)c2C#N)ccc1O`, for which the AC50 – broadly, the midpoint of the concentration-response curve, whichever way the signal moves – under setting [1] was 12.6 µM [falling, single point].
Still for that read-out and setting: next, `O=C(Nc1cc(Sc2ccccn2)cc([N+](=O)[O-])c1)c1cccc(Cl)c1`: 18.4 µM [falling, partial curve, poor fit].
In the case of `CC1=Nc2cc(C(=O)NCc3ccco3)ccc2Sc2ccc(C)cc21`, the AC50 is, setting by setting: under setting [1], 8.2 µM [rising, partial curve]; under setting [2], 5.8 µM [falling, partial curve].
With `O=C(c1cccs1)N1CCN=C1SCc1ccc(F)cc1`, the AC50 under setting [1] was 5.01 µM [rising, single point].
On the same count and under the same terms, next, `Cc1[nH]n(C(N)=S)c(=O)c1C(c1ccccc1)C(C#N)C#N` (configuration not stated): 2.31 µM [falling, partial curve].
Same read-out and setting: next, `COC(=O)c1cc(C#N)c(OC(C)C)nc1C`: 2.24 µM [rising, full curve, poor fit]; `CC(C)(C)C(=O)NC(Nc1cccc2cccnc12)C(Cl)(Cl)Cl` (configuration not stated): 11.2 µM [falling, single point].
On the same count and under the same terms, with `O=C(NC(=S)Nc1ccc(O)cc1)c1ccccc1Cl` the figure was 12.6 µM [falling, single point]; with `CCCN(CCC)CCNC(=O)CCC(=O)Nc1ccc2nc(N3CCN(C)CC3)cc(C)c2c1`, 10 µM [falling, partial curve, poor fit].
Take `CCCc1[nH]nc2c1C(c1cn[nH]c1-c1ccc(F)cc1)C(C#N)=C(N)O2` (configuration not stated): the AC50 under setting [1] was 6.51 µM [falling, single point].
As to `CCc1ccc(NC(=O)C2CCN(C(=O)[C@@H]3Cc4ccccc4CN3)CC2)cc1`, under setting [1], the AC50 is 0.631 µM [rising, partial curve, poor fit].
Same read-out and setting: with `COc1ccccc1N1CCN(/N=C/c2ccc([N+](=O)[O-])cc2)CC1` the figure was 7.08 µM [rising, partial curve, poor fit].
On the same count and under the same terms, with `COc1ccc(Sc2nc3ccccc3n3c(C(F)(F)F)nnc23)cc1` the figure was 20 µM [falling, single point].
Consider `C1=Nc2c(NCc3ccccc3)ncnc2Oc2ccccc21`, for which the AC50 under setting [1] is 0.92 µM [rising, partial curve, poor fit].
Still for that read-out and setting: next, `Cc1ccc(-c2nc3cc(Cl)ccc3o2)cc1`: 0.116 µM [rising, full curve, poor fit]; `CSc1cccc(NC(=S)Nc2ccc(F)cc2)c1`: 3.16 µM [rising, single point].
On the same count and under the same terms, with `C#CCN(Cc1ccccc1)S(=O)(=O)C=C` the figure was 8.2 µM [falling, partial curve, poor fit]; with `Cc1ccccc1OCCn1nc(C(=O)O)c2ccccc2c1=O`, 2.51 µM [rising, partial curve].
The same measure, in the same setting: next, `CC(C)CN(CC(C)C)c1nc(N)c(C#N)c(CC#N)c1C#N`: 2.91 µM [falling, full curve]; `COC(=O)CN1C(c2ccc(Cl)cc2)=Nc2ccc(Cl)cc2C1c1ccccc1` (configuration not stated): 3.66 µM [falling, full curve]; `C/C(=N\Nc1ccc(Cl)cc1)c1ccncc1`: 0.112 µM [rising, full curve, poor fit].
For the molecule `CCN(Cc1ccccc1)S(=O)(=O)c1ccc(OC)cc1`, the concentration at half-maximal activity (AC50) under setting [1] is 35.5 µM [rising, single point].
The same measure, in the same setting: with `O=C(Nc1ccc(F)c(F)c1)c1ccc(F)c(S(=O)(=O)N2CCC3(CC2)OCCO3)c1` the figure was 2.51 µM [rising, partial curve, poor fit].
On the same count and under the same terms, with `CC1(C(=O)O)Sc2[nH]c(=O)sc2C2c3ccccc3OC(=O)C21` (configuration not stated) the figure was 15.8 µM [falling, single point]; with `C[C@H](CO)N1C[C@H](C)[C@@H](CN(C)Cc2ccc(Cl)c(Cl)c2)Oc2c(NC(=O)C3CCOCC3)cccc2C1=O`, 10.3 µM [falling, single point]; with `O=C(CCCc1nc(-c2ccccc2)no1)N1CCOCC1`, 5.01 µM [rising, partial curve, poor fit].
With `Cn1c(=O)cc(SCC(=O)N2CCN(C(=O)c3ccco3)CC2)c2ccccc21`, the AC50 under setting [2] was 13 µM [falling, partial curve, poor fit].
Turning to `CCOC(=O)[C@H]1[C@H]2COc3ccccc3[C@@H]2N2C(=O)c3cc(F)ccc3NC(=O)[C@@]12C`, the AC50 under setting [1] is 20.6 µM [falling, single point].
On the same count and under the same terms, with `Cc1onc(-c2ccccc2Cl)c1C(=O)NC1CCCCCC1` the figure was 17.8 µM [falling, single point]; with `CC(C)(C)c1cc(NCCCn2ccnc2)n2ncc(-c3ccc(Cl)cc3)c2n1`, 3.98 µM [falling, partial curve]; with `Cc1c(N)cccc1-c1nc2ccccc2[nH]1`, 8.2 µM [falling, partial curve].
Still for that read-out and setting: next, `COC(=O)c1c(-c2ccc(C)cc2)csc1NC(=S)NC(=O)c1cc(OC)cc(OC)c1`: 2.59 µM [falling, full curve, poor fit]; `CN(C)S(=O)(=O)N1CCC(Oc2cccc(C(=O)NCCCC3CCCC3)c2)CC1`: 7.94 µM [falling, partial curve].
Same read-out and setting: next, `Cc1ccc(-c2nnc(Nc3ccc(O)cc3)c3ccccc23)cc1S(=O)(=O)NCCO`: 14.1 µM [falling, partial curve]; `O=C(NCc1ccccc1)c1ccc(Br)cc1Br`: 11.6 µM [rising, partial curve, poor fit]; `COc1ccc(Cl)cc1C(=O)Nn1c(-c2cccs2)nc2ccccc2c1=O`: 25.9 µM [falling, partial curve, poor fit].
As to `CCCCCOc1ccc(NC(=O)CSc2cccc3cccnc23)cc1`, under setting [2], the concentration at half-maximal activity (AC50) is 18.4 µM [falling, single point].
In the case of `O=C(Nc1cccc([N+](=O)[O-])c1)N1CCCc2ccccc21`, the AC50 under setting [1] was 31.6 µM [rising, single point].
Regarding `O=C(Nc1ccc(F)cc1F)c1cc(-c2ccc3c(c2)OCO3)on1`, the concentration at half-maximal activity (AC50) under setting [1] was 0.0891 µM [falling, full curve, poor fit].
On the same count and under the same terms, next, `Cc1cc(C)cc(OCc2ccc(C(=O)O)o2)c1`: 20.6 µM [falling, single point]; `COc1nc(Cl)cn(-c2ccc(Cl)cc2)c1=O`: 0.82 µM [falling, full curve].
